From patent publication US20190144558A1
Changes are numbered by the printed parent chain. These are yes or no findings as the source states them, for the method shown. Some entries that bind do so weakly or less than the wild type.

By UniProt entry, the sequences of proteins in these tests, tags left out. Where a name states a change or a piece, a line headed by the entry shows the natural chain unless it says otherwise. Chains listed by the source or under a name are the forms on record and can include a tag or linker.
rhesus CD117 ectodomain (F6V858, form named): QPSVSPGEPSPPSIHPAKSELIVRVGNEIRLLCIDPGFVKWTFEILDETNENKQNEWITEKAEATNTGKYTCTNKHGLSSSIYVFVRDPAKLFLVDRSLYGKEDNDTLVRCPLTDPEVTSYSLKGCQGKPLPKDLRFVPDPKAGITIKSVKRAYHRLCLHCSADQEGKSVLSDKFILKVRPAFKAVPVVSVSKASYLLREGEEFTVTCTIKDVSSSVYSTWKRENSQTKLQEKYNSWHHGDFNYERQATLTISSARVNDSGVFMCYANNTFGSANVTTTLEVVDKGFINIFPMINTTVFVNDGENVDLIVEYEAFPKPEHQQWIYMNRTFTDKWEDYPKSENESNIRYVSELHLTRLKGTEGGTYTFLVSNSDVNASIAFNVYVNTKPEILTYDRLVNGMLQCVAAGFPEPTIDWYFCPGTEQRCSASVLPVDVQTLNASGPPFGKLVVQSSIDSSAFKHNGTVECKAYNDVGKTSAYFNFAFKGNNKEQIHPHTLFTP
UniProt P10721: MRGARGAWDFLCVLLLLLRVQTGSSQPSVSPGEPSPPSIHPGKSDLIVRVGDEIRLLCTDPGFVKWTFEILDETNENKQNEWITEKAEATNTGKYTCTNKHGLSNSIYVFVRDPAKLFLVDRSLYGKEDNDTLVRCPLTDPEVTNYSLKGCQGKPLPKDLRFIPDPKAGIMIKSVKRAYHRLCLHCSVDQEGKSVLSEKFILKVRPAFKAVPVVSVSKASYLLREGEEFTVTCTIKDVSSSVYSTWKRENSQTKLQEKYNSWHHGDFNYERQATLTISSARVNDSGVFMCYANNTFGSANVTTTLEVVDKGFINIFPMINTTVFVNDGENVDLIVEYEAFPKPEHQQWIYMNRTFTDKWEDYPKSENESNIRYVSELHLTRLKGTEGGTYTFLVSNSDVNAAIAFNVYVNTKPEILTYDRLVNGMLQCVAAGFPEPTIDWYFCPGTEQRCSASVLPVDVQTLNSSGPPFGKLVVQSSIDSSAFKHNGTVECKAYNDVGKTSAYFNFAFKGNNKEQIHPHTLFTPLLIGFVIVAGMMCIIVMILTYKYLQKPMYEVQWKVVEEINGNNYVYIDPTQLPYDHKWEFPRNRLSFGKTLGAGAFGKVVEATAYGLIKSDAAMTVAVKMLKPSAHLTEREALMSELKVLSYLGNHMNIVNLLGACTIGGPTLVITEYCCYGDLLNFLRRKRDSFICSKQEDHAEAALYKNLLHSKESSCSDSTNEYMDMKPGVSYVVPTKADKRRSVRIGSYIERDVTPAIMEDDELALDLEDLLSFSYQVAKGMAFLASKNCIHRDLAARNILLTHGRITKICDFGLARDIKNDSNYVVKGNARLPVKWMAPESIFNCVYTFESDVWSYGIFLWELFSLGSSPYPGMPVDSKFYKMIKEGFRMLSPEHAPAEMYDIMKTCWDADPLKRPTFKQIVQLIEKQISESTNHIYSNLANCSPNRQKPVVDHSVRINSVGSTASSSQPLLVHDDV

Key:
[1] = biological target: rhesus CD117 ectodomain (rhesus) (UniProt F6V858); experiment: BLI
[2] = biological target: human CD117 isoform 1 (human) (UniProt P10721); experiment: method not described
[3] = biological target: human CD117 isoform 2 (human) (UniProt P10721); experiment: method not described
[4] = biological target: human CD117 isoform 1 (human) (UniProt P10721); experiment: antibodies from yeast library screen; method not given
[5] = biological target: human CD117 isoform 2 (human) (UniProt P10721); experiment: as above
[6] = biological target: rhesus CD117 ectodomain (rhesus) (UniProt F6V858); experiment: as above
[7] = biological target: rhesus CD117 ectodomain (rhesus) (UniProt F6V858); experiment: yeast display screen / follow-up characterisation

Measured: binding

B1: Antibody 57 (antibody, human IgG1, kappa, V domains shown)
VH: QVQLVQSGAEVKKPGSSVKVSCKASGGTFSLYAISWVRQAPGQGLEWMGGIIPHFGLANYAQKFQGRVTITADESTSTAYMELSSLRSEDTAVYYCARGGLDTDEFDLWGRGTLVTVSS
VL: DIQMTQSPSSLSASVGDRVTITCRASQSINSYLNWYQQKPGKAPKLLIYAASSLQSGVPSRFSGSGSGTDFTLTISSLQPEDFATYYCQQGVSDITFGGGTKVEIKR
binds: [1] | [2] | [3] | [4] | [5] | [6]

B2: Antibody 61 (antibody, human IgG1, kappa, V domains shown)
VH: EVQLLESGGGLVQPGGSLRLSCAASGFTFSSYVMIWVRQAPGKGLEWVSSISGDSVTTYYADSVKGRFTISRDNSKNTLYLQMNSLRAEDTAVYYCAKGPPTYHTNYYYMDVWGKGTTVTVSS
VL: DIQMTQSPSSVSASVGDRVTITCRASQGISSWLAWYQQKPGKAPKLLIYAASSLQSGVPSRFSGSGSGTDFTLTISSLQPEDFATYYCQQTNSFPYTFGGGTKVEIKR
binds: [1] | [2] | [3] | [4] | [5] | [6]

B3: Antibody 55 (antibody, human IgG1, kappa, V domains shown)
VH: B1 VH with S30R, L31I, H54D, L57V
VL: B1 VL
binds: [1] | [2] | [3] | [7] | [4] | [5] | [6]
